Source: article PMC9984195

T1: Centrosomal protein of 78 kDa (Cep78), endogenous mouse testicular protein (mouse (endogenous in testis)) (UniProt Q6IRU7)
T1 sequence: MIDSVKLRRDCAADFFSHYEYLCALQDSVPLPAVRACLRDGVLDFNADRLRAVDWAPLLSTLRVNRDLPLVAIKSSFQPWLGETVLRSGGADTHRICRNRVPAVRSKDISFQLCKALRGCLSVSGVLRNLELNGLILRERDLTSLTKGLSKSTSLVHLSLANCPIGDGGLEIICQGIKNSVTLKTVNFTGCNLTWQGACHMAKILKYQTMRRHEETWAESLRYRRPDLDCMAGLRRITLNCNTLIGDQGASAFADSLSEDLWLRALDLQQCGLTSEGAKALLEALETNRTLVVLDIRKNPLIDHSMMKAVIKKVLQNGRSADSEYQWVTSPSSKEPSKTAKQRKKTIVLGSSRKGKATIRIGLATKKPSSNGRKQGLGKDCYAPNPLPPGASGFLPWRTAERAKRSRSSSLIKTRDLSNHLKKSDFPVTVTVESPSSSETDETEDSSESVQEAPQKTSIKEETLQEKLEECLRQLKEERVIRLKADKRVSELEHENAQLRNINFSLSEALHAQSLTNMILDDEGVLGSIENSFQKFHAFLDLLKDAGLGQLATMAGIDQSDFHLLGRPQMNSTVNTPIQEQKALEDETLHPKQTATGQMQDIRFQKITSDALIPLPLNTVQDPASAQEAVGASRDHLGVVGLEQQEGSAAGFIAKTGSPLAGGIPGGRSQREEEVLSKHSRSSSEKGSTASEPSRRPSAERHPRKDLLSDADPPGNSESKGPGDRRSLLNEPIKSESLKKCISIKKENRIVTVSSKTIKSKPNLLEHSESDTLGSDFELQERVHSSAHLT


molecular target: T1, Centrosomal protein of 78 kDa (Cep78), endogenous mouse testicular protein (mouse (endogenous in testis)); assay: affinity purification with mass spectrometry; anti-Cep78 (custom antibody against p457-741 of mouse Cep78) immunoprecipitation from testicular lysates of Cep78^+/− and Cep78^−/− mice, Pierce IP lysis buffer, Pierce co-IP kit, quantitative LC-MS of silver-stained gel lanes

Row | Binder | binding
1 | Cytoplasmic dynein 2 light intermediate chain 1 (protein, UniProt Q8K0T2 1-351) MPSETLWEIAKAEVEKRRSHGSEGDGAEIGEKSVFFIGSKNGGKTTIILRCLDRDESAKPTLALEYTYGRKTKGHNTPKDIAHFWELGGGTSLLDLISIPITVDTLRTFSIVLVLDLSKPNDLWSTMENLLQATKSHVDKVIMKLGKTSSKASAEMRQRMWSVVQKDHPDRELIDPFPIPLVIIGSKYDIFQDFDPEKRKVICKTLRFVAHYYGASLMFTSKSEALLLKIRGVINQLAFGIDKSKSICVDQNKPLFITAGLDSLCQIGSPPVPDSDIGKLQAHSPMELWKKVYDKLFPPKSTGTLKAVQDPARDPQYAESEVDEMRVQKDQELEHYKRSSSKTWKQIELDS | binds
2 | Intraflagellar transport protein 25 homolog (protein, UniProt Q9D6H2 1-143) MRKVDLCSVTEGTEVILATSSDEKHPPENIIDGNPETFWTTTGMFPQEFIICFHKHVKIEKLVIQSYLVRTLRIEKTTSKEPLDFEQWVEKDLVHTEGQLQNEEIVARDGYATFLRFIIVSAFDHFASVHSISAEGLTVSSLP | binds
3 | Intraflagellar transport protein 122 homolog (protein, UniProt Q6NWV3 1-1182) MRAVLTWRDKAEQCIYDLAFKPDGTQLILAAGNRLLVYDTSDGTLLQPLKGHKDTVYCVAYAKDGKRFASGSADKSIIIWTSKLEGILKYTHNDSIQCVSYNPVTHQLASCSSSDFGLWSPEQKSVSKHKSSSKITCCSWTNDGQYLALGMANGIISIRNKNGEEKVKIERPGGSLSPIWSICWNPSREEHNDILAVADWGQKLSFYQLSGKQIGKDRPLNFDPCCISYFTKGEYILVGGSDKQVSLFTKDGVRLGTVGEQNSWVWTCRVKPDSNYVVVGCQDGTISFYQLIFSTVHGLYKDRYAYRDSMTDVIVQHLITEQKVRIKCRELVKKIAIYKNRLAIQLPEKILIYELYSEDSTDMHYRVKEKIVKKFECNLLVVCADHIILCQEKRLQCLSFSGVKEREWQMESLIRYIKVIGGPAGREGLLVGLKNGQILKIFVDNLFAIVLLKQATAVRCLDMSASRNKLAVVDENDTCLVYDIHTKELLFQEPNANSVAWNTQCEDMLCFSGGGYLNIKASTFPVHQQKLQGFVVGYNGSKIFCLHVFSMSAVEVPQSAPMYQYLDRKMFKEAYQIACLGVTDADWRELAMEALEGLEFETARKAFTRVQDLRYLELISSIEERKKRGETNNDLFLADVFSYQGKFHEAAKLYKRSGHENLALDMYTDLCMFEYAKDFLGSGDPKETKMLITKQADWARNINEPKAAVEMYISAGEHAKAIEISGSHGWVDMLIDIARKLDKAEREPLLMCACYFKKLDSPGYAAETYLKIGDLKSLVQLYVDTKRWDEAFALGEKHPEFKDDVYVPYAQWLAENDRFEEAQKAFHKAGRQGEAVRVLEQLTHNAVVESRFNDAAYYYWMLSMQCLDMAQDPAQKDAMLDKFHHFQHLAELYHGYQTIHRYTEEPFSFDLPETLFNISKFLLHSLTKATPLGISKVNTLFTLAKQSKALGAYKLARHAYDKLRGLQIPARIQKSIELGTLTIRSKPFHDSEELVPLCYRCSTNNPLLNNLGNVCINCRQPFIFSASSYEVLHLVEFYLEEGITDEEAVALIDLEAPRHKREGKWRETSSNNSQTLKLDETMDSIGEDDPFTAKLSFEQGSSEFVPVVVNRSVLRSMSRRDVLIKRWPPPLQWQYFRSLLPDASITMCPSCFQMFHSEDYELLVLQHACCPYCRRRIDDTGP | binds

Results are given in words; binding and its absence hold for the method and conditions named. Binding seen in cells or lysates may run through a third protein. Here binding means that the protein was enriched with, or labelled near, the bait; the list need not be complete. Where a sequence is shown, tags or fusion partners need not be part of it.
